# Laboratory results as given in paper PMC5996148.
# By UniProt entry, the sequences of proteins in these tests, tags left out.
# UniProt Q9GZZ9, whole entry: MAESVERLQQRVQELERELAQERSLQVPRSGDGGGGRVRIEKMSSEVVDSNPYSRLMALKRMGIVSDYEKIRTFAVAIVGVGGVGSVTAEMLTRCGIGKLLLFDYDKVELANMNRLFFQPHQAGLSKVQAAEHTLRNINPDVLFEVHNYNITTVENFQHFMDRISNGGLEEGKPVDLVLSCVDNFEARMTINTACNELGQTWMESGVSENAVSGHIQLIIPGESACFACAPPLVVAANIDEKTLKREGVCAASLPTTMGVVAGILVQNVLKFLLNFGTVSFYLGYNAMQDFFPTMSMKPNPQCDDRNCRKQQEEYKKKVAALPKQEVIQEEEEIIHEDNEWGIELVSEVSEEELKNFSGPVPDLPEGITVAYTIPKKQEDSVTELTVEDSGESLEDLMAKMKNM
# Several values for one entry are separate records, joined by “and”; a condition that tells them apart may be missing. Identical values can stand only once. The list shows a part of the results. For some assays here: The exact form of the protein is not confirmed.
# Columns and labels:
# Assay in all cases: protein microarray (ProtoArray v5.0), streptavidin-Alexa Fluor 647
# Conditions in all cases: 3'-biotin; 20 mM Tris (pH 7.5), 5 mM MgCl2, 100 mM KCl, 0.1% Tween-20, A/T-rich and random oligonucleotide blockers; temperature not stated; high values mean tight binding
# [1] = tested on: Thymosin beta-4, Y-chromosomal (human)
# [2] = tested on: Thyroid receptor-interacting protein 11 (human)
# [3] = tested on: Transaldolase (human)
# [4] = tested on: Transcription initiation factor TFIID subunit 8 (human)
# [5] = tested on: Transmembrane 4 L6 family member 1 (human)
# [6] = tested on: Transmembrane protein 107 (human)
# [7] = tested on: Transmembrane protein 156 (human)
# [8] = tested on: Transmembrane protein 203 (human)
# [9] = tested on: Transmembrane protein 207 (human)
# [10] = tested on: Transmembrane protein 43 (human)
# [11] = tested on: Transmembrane protein 86B (human)
# [12] = tested on: Trypsin-2 (human)
# [13] = tested on: Tubulin-specific chaperone D (human)
# [14] = tested on: Tumor protein D52 (human)
# [15] = tested on: Tumor protein D53 (human)
# [16] = tested on: UBADC1 (human)
# [17] = target: UBE1DC1 (UniProt Q9GZZ9)
# [18] = tested on: UBE2C (human)
# [19] = tested on: UBE2DNL (human)
# [20] = tested on: UBE2L6 (human)
sequence,measurement,setting,value
GGGGACAGGGGTATGGGGAGGGG [G4-3 biotinylated (CtG)],binding signal,[1],-0.337 z-score
same,binding signal,[2],-0.325 z-score
same,binding signal,[3],-0.335 z-score
same,binding signal,[4],-0.333 z-score
same,binding signal,[5],-0.295 z-score
same,binding signal,[6],-0.314 z-score
same,binding signal,[7],-0.336 z-score
same,binding signal,[8],-0.328 z-score
same,binding signal,[9],-0.31 z-score
same,binding signal,[10],-0.324 z-score
same,binding signal,[11],-0.322 z-score
same,binding signal,[12],-0.331 z-score
same,binding signal,[13],-0.322 z-score
same,binding signal,[14],-0.322 z-score
same,binding signal,[15],-0.316 z-score
same,binding signal,[16],-0.334 z-score
same,binding signal,[17],-0.316 z-score
same,binding signal,[18],-0.349 z-score and -0.341 z-score
same,binding signal,[19],-0.314 z-score
same,binding signal,[20],-0.331 z-score
